Assay results as given in publication PMC6559791.
These are yes or no findings as the source states them, for the method shown. Binding seen in cells or lysates may run through a third protein. Some results given as binding are weak or reduced against the parent protein; the word gives no strength. Where a sequence is shown, tags or fusion partners need not be part of it.

Tests used:
[1] = molecular target: T1, DmSAS-6-GFP-FLAG-6xHis (Drosophila melanogaster) (UniProt Q9VAC8); experiment: co-IP; S. pombe cell extracts (20 mM Hepes-NaOH pH 7.5, 50 mM KOAc, 200 mM NaCl, 1 mM EDTA, 0.2% Triton X-100); GFP/YFP-tagged protein precipitated with rabbit anti-GFP on Dynabeads Protein A, 3 h at 4°C; western blot
T1 sequence: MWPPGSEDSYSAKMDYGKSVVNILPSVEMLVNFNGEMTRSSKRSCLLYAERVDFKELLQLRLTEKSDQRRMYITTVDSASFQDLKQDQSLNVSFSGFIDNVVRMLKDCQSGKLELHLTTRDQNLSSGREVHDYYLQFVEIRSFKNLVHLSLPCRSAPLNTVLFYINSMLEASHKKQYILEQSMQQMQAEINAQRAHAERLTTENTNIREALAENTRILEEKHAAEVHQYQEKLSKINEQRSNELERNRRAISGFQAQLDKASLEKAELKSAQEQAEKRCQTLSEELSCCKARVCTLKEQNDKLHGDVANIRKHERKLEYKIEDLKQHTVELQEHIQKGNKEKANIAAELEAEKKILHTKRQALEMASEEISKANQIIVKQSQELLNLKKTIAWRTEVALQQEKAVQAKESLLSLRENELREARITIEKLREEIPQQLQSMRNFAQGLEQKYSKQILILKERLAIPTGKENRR

[2] = molecular target: T2, 6xHis-FLAG-YFP-DmSAS-4 (Drosophila melanogaster) (UniProt Q9VI72); experiment: as above
T2 sequence: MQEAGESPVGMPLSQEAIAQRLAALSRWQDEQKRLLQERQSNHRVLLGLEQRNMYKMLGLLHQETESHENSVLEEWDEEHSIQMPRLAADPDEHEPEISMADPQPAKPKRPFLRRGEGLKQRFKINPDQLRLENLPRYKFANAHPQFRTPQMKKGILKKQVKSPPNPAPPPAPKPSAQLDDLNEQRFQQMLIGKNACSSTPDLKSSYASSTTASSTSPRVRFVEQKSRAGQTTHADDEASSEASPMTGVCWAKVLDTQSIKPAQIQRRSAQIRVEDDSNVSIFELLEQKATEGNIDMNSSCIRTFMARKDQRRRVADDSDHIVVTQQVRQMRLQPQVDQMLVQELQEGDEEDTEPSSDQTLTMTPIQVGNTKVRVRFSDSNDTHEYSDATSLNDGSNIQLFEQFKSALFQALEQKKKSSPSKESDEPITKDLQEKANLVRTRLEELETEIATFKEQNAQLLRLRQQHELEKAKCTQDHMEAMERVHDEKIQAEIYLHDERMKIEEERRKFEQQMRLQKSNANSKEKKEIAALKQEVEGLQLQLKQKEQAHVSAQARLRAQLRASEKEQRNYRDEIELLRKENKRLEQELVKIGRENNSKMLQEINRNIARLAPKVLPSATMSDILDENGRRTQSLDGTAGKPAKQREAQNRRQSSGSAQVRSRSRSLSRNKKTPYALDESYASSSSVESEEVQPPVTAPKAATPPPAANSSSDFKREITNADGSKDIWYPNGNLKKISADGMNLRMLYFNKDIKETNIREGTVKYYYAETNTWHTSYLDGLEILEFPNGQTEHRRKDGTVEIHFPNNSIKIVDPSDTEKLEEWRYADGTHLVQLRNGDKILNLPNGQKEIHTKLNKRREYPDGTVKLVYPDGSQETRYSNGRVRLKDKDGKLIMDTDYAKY

B1: Pcp1-HA (protein, UniProt Q92351 1-1208)
chain: MSERDFNTQSPKFKDENANSVISQSDFLGKSLKNNNDDYSDFRGSYLNDKSSFQTPLRNGSYQPKGSLEFTPLLQSSNKNSDKYNGSLGDKGSFDPNSYGLSAISKQATQEALSISQGNDSYDVSKLTDLSKNSEIDHTDGELPANAALTLREQEKVLEKVSRENFGLRIKIVCLEKRLESMAPEQIKEAVKDNVELHAERANLQLQLKRTESLLQKSEDKNFKLEEKVDYLSKVNDVEQSQNVKVFTERIRFLENALEKVQREKDSLSTEMEEDKSNKEVDYEYEIRQLQNRLDELSEELDVAQDLLTEKEDEIATLKRQIEEKENSSSAFENEENSSYVHLQEDYAILQAKCDEFADRIQVLTADLEKEKENQIMHESEASIGLTDSMQVHTLQEQLHKANEEIEFLHDQISRMNEEGKNFEDIMLQFRSLEEERDVLESKLQTLEDDNNSLRLMTSSLGNQIESLRTQNREIDEEKNHLRLLASKNSDKALAETNIRLQEVTKELETLRMKNSNDLNEIHDLREENEGLTLKIDSITKEKDRLINELEQRIKSYEVNVSELNGTIDEYRNKLKDKEETYNEVMNAFQYKDNDLRRFHESINKLQDREKELTSNLEKKNLVISSLRETVAMLEKERESIKKYLSGNAKDLDNTNLMEILNDKISVLQRQLTDVKDELDVSEEEREEAIVAGQKLSASFELMSNEKQALELKYSSLKNELINAQNLLDRREEELSELSKKLFEERKIRSGSNDDIEKNKEINVLNSELADKLAQIRHLESDKMELDKLVHHLNRGIEEANIEENAVKKRLCLLMGCDYSSVSILQIVSQIEHFVNQQIQTIRSLKQELRHDFVQFSGKKEQELSRSFEKFGLGTETKHDILAQRNRNVSEKMNDLENAAQKFFSSPDRKNGYLYPSEHTSKIEYLEKTIEDLKLALQDELKNRNLLMDDISSYNKQTTKLQEKIKWLERERSILIDELESYRSNQFNYQNNLVQDKNELEERLKEIQKELEVYNNHFMKQAELMTSNVTDESQLMLKTLREALQSKTNNIDHLSTILERNRKEYKSLLDDYNQLRARYKNLQSNTPQSTQSGQYESEIKGLSKLTKYLQSKCRREHSLRLDLAFSKKFILMQLTGYETCNKINLRMLQKIGISPDPDLSKKHIKLKSLIIVVCSIERMKRMKNEWLKQAQLKQSLQRAAAKAKTANY
binding [1]: binds | binding [2]: binds

B2: Pcp1-mCherry (full length) (protein, UniProt Q92351 1-1208)
chain: B1 chain
binding [1]: binds

B3: Pcp1-mCherry (C 783-1208) (domain or fragment, UniProt Q92351 783-1208)
chain: KMELDKLVHHLNRGIEEANIEENAVKKRLCLLMGCDYSSVSILQIVSQIEHFVNQQIQTIRSLKQELRHDFVQFSGKKEQELSRSFEKFGLGTETKHDILAQRNRNVSEKMNDLENAAQKFFSSPDRKNGYLYPSEHTSKIEYLEKTIEDLKLALQDELKNRNLLMDDISSYNKQTTKLQEKIKWLERERSILIDELESYRSNQFNYQNNLVQDKNELEERLKEIQKELEVYNNHFMKQAELMTSNVTDESQLMLKTLREALQSKTNNIDHLSTILERNRKEYKSLLDDYNQLRARYKNLQSNTPQSTQSGQYESEIKGLSKLTKYLQSKCRREHSLRLDLAFSKKFILMQLTGYETCNKINLRMLQKIGISPDPDLSKKHIKLKSLIIVVCSIERMKRMKNEWLKQAQLKQSLQRAAAKAKTANY
binding [1]: binds
